“And” between values parts separate entries of the source, which are not always exact repeats. Identical values can stand only once. Out of some 290,000 compounds screened, about 110 (0.038%) were called active. The inconclusive results got no clear call from the source; some entries with a clear call stand among them for comparison. The call rests on the fitted dose curve; in most records, active means well fitted inhibition curve with a large enough effect in the polarisation, with a control signal flat (not every such curve was filed as active); inconclusive means small, poorly fitted or top-dose-only effect, or effect the other way, or a change in a side signal; inactive means no such curve, though single readings can be large or run the other way; the % refers to the polarisation. Where the call is inconclusive, the potency comes from a doubtful curve fit. A note “side channel” means that the fit belongs to a control or component signal, not to the main read-out.
molecular target: Histone-lysine N-methyltransferase 2A (Homo sapiens) (UniProt Q03164); test: qHTS Fluorescence Polarization Assay for Inhibitors of MLL CXXC domain - DNA interaction; conditions: MLL-CXXC / FITC-HOXA9 DNA fluorescence polarization; activity change, negative = inhibition: at 115 µM (top of the series)
Method in brief: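 Fluorescence polarization: 7 uM MLL-CXXC (stock) preincubated 5 min with compounds, then 50 nM fluorescein-HOX-A9 DNA (stock) added; 30 min ambient. Buffer 50 mM Tris-HCl pH 7.5, 50 mM NaCl, 1 mM DTT, 0.05% BSA.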
Potency means the concentration at half of the fitted maximal effect.

Chains of the proteins cited; added tags and fusions are not shown.
UniProt Q03164, whole entry, looked up: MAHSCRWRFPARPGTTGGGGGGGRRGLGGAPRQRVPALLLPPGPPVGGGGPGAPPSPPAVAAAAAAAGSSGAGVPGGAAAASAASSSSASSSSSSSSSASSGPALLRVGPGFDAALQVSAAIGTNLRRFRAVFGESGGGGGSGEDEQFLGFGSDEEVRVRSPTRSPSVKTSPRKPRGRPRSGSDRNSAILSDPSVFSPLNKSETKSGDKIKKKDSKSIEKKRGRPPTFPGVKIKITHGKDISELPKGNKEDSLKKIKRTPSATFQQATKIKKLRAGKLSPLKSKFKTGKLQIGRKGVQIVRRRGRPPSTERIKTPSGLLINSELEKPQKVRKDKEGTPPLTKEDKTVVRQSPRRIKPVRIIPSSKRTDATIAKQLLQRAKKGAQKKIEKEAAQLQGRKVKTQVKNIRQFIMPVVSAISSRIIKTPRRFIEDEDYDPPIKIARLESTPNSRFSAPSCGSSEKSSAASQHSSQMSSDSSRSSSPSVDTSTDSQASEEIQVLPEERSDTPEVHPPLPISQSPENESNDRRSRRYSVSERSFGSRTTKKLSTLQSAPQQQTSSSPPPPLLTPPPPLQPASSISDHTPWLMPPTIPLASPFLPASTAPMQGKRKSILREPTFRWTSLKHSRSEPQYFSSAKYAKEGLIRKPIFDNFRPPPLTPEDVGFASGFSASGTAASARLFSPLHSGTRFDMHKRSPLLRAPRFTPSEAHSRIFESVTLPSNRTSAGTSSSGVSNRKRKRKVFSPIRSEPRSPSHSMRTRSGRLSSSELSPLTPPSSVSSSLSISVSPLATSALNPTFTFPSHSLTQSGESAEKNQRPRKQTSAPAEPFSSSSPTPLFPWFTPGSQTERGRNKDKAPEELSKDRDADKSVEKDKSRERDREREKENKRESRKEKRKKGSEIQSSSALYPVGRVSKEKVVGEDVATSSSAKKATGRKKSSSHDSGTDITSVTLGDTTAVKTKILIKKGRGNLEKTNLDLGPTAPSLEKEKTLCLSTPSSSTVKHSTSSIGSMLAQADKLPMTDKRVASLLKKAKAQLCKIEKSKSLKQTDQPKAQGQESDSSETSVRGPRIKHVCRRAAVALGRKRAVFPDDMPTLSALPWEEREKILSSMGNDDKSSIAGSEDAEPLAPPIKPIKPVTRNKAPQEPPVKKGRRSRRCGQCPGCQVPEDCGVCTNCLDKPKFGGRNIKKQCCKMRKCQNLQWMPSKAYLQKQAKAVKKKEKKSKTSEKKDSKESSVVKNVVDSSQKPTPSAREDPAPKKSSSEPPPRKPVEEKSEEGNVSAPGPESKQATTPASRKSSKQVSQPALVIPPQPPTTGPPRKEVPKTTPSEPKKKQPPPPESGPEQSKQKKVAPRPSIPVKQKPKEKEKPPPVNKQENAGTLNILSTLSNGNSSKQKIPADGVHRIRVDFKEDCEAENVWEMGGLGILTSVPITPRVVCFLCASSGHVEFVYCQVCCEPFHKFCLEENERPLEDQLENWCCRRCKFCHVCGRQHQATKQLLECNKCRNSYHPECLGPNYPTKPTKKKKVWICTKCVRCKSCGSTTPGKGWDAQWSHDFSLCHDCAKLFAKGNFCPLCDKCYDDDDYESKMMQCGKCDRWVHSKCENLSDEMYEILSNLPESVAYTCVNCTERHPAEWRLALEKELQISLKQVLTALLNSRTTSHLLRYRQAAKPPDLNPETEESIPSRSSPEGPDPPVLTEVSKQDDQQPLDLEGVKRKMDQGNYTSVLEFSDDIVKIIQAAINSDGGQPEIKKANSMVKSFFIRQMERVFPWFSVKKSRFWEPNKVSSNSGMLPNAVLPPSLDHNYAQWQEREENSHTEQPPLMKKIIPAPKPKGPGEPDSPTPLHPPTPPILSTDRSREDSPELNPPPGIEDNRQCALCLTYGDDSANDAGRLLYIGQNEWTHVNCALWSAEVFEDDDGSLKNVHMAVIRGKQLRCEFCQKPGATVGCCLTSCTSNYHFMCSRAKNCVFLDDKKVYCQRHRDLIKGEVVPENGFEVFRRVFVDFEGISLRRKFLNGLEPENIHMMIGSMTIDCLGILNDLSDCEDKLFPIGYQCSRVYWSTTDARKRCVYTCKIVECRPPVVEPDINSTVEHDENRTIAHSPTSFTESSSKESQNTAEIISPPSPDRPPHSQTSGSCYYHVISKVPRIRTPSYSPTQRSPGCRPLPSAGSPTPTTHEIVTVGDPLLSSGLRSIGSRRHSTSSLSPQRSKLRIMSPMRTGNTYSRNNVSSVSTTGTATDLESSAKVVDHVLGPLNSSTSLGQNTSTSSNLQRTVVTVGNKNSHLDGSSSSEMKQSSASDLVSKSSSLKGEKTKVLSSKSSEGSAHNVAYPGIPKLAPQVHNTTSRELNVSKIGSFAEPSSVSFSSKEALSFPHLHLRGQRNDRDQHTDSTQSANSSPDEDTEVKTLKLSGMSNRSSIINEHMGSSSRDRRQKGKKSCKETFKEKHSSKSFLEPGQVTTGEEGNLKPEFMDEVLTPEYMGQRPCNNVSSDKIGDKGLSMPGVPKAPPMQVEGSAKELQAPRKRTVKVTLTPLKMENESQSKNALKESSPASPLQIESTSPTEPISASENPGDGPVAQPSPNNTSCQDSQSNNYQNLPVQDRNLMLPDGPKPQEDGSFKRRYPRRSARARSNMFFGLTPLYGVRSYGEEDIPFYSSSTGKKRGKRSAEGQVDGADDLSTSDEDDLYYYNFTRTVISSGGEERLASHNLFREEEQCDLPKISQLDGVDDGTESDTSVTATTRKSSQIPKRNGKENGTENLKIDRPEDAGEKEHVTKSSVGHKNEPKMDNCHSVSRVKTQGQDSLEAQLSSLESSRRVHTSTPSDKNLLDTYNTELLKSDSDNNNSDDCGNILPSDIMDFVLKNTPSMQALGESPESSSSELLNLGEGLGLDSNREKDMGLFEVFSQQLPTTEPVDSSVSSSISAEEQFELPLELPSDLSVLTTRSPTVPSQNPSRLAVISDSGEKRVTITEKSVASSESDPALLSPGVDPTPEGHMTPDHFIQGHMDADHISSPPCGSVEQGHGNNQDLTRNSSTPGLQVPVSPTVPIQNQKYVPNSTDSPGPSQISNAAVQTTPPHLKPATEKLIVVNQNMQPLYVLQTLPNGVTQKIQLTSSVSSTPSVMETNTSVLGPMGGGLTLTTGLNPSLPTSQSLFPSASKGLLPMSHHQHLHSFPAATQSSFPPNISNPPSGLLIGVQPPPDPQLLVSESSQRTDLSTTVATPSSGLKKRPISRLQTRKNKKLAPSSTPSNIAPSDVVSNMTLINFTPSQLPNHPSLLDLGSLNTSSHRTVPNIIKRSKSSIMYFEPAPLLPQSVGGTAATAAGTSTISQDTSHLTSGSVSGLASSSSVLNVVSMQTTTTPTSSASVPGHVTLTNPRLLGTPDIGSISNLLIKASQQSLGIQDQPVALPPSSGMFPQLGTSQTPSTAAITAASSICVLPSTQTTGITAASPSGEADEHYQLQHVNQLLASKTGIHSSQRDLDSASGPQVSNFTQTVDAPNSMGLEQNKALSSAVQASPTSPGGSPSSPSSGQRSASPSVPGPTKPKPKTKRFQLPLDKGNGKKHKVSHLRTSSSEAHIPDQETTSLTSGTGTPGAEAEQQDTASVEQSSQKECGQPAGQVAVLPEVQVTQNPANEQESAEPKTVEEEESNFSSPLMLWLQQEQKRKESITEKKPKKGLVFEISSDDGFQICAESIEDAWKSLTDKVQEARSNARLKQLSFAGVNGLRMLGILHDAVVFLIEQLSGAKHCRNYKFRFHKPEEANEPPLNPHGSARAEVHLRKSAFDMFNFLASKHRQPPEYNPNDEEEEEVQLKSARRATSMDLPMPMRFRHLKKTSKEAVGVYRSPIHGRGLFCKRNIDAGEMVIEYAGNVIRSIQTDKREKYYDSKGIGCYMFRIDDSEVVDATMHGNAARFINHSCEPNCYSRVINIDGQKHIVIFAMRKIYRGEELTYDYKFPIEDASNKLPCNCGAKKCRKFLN

Compound	activity change, negative = inhibition	Potency
Cc1ccc(-c2cc(C(=O)O)c3sc(N4CCCCC4)nc3n2)cc1	inactive: 1.78%	–
COc1cc(C(=O)NCc2nnc(SCC(=O)Nc3nc4ccc(C)cc4s3)o2)cc(OC)c1OC	–	inconclusive: 20 µM [fluorescent, side channel, full curve, poor fit]
CCCCN1C(=O)/C(=C/C=C2\N(C)c3ccccc3C2(C)C)SC1=S	–	inconclusive: 5.62 µM [fluorescent, side channel, full curve]
Cc1ccc(C(=O)N/C(=C\c2ccc(Cl)cc2)C(=O)NCCN2CCOCC2)cc1	inactive: 57.5%	–
COc1cccc(NC(=O)CC2Oc3ccccc3NC2=O)c1 (stereo unspecified)	–	inconclusive: 15.8 µM [fluorescent, side channel, single point]
CN1CCN(c2cc(N3CCN(C(=O)c4ccco4)CC3)c3c4c(onc24)-c2ccccc2C3=O)CC1	–	inconclusive: 31.6 µM [fluorescent, side channel, partial curve]
Cc1occc1-c1nnc(SCC(=O)c2ccc(Cl)cc2)n1C	inactive: 6.7%	–
CC(=O)Nc1ccc(S(=O)(=O)NCc2ccc3c(c2)cc(C)n3C)cc1	inactive: 15%	–
COc1ccc(C)cc1S(=O)(=O)N1CCCC(C(=O)N2CCN(c3ccccc3F)CC2)C1 (stereo unspecified)	–	inconclusive: 15.8 µM [fluorescent, side channel, single point]
CCCCCCCC[n+]1cccc2c3ccccc3ccc21	inactive: 7.03%	–
COc1cc(/C=C(\C#N)C(=O)c2ccc(O)c(O)c2)cc(I)c1O	–	inconclusive: 31.6 µM [fluorescent, side channel, partial curve]
CSC1=NSC2=NC(=O)/C(=C/c3coc4ccccc4c3=O)C(=N)N12	–	inconclusive: 7.08 µM [fluorescent, side channel, full curve]
O=C(O)CCNc1cc(N2CCN(C(=O)c3ccco3)CC2)c2noc3c2c1C(=O)c1ccccc1-3	–	inconclusive: 11.2 µM [fluorescent, side channel, partial curve]
N#Cc1c(SCC(=O)O)nc(-c2ccccc2)c2c1CCCC2	–	inconclusive: 2.82 µM [fluorescent, side channel, full curve]
CC1(C)OC(=O)C(=CNc2ccccn2)C(=O)O1	inactive: 4.96%	–
Clc1cccc(CSc2nc3ccncc3[nH]2)c1	–	inconclusive: 12.6 µM [fluorescent, side channel, single point]
CC(C)n1cc(/C=C/c2cc[n+](C)cc2)c2ccccc21	–	inconclusive: 39.8 µM [fluorescent, side channel, partial curve]
O=C(CNc1c(Br)cc(Br)cc1Br)NN=C1CCCCC1	–	inconclusive: 89.1 µM [inhibitor, single point]
CCCC1C2CN(C(C)C)CC=C2C(C#N)=C(N)C1(C#N)C#N (stereo unspecified)	–	inconclusive: 35.5 µM [inhibitor, single point]
CCOc1cc(/C=C2\C(=N)N3N=C(C)SC3=NC2=O)ccc1OCCOc1cccc(OC)c1	–	inconclusive: 8.91 µM [inhibitor, single point]
O=C1/C(=C/c2ccncc2)SC(=S)N1Nc1ccccc1	inactive: -0.245%	–

Compound	activity change, negative = inhibition	Potency
COc1cc(NC(=O)Cn2ccsc2=N)c(C)cc1[N+](=O)[O-]	–	inconclusive: 2.24 µM [quencher, side channel, full curve]
COC(=O)c1c(C)[nH]c(O)c1C=Nc1ccc(C#N)cc1	–	inconclusive: 31.6 µM [fluorescent, side channel, partial curve]
COc1ccc2c(c1)CCN1C2CCN2C(=O)CCC21 (stereo unspecified)	–	inconclusive: 39.8 µM [fluorescent, side channel, partial curve]
COc1ccc(S(=O)(=O)N(CC(=O)N/N=C/c2cccs2)c2cc(C)cc(C)c2)cc1OC	inactive: 13.9%	–
COCCNC(=O)c1ccc(CSc2nc3ccccc3s2)cc1	–	inconclusive: 11.2 µM [fluorescent, side channel, single point]
COc1ccc(NC(=O)C(Cc2cc(C)cc(C)c2)C(C)C(=O)O)cc1 (stereo unspecified)	–	inconclusive: 31.6 µM [inhibitor, single point]
COc1ccc(NC(=O)NCC(C)CSc2ccc(C)cc2)c(OC)c1 (stereo unspecified)	–	inconclusive: 10 µM [fluorescent, side channel, single point]
CCN(CC)c1ccc(/C=C(\C#N)C(=O)c2ccc(Br)cc2)cc1	–	inconclusive: 2.82 µM [fluorescent, side channel, full curve]
Cc1cccc2sc(NC(=O)CCNS(=O)(=O)c3cccs3)nc12	–	inconclusive: 8.91 µM [inhibitor, single point]
O=c1[nH][nH]c(=O)c2c(NS(=O)(=O)c3ccccc3)cccc12	inactive: -16%	–
O=C(Nc1nccs1)c1ccc(CSc2ccccc2)o1	inactive: 10.6%	–
CCn1c(-c2cc(-c3cccc(OC)c3)nc3ccccc23)n[nH]c1=S	–	inconclusive: 39.8 µM [fluorescent, side channel, single point]
COc1cc(C(=O)NCCN2C(=O)S/C(=C\c3cccs3)C2=O)cc(OC)c1OC	–	inconclusive: 31.6 µM [fluorescent, side channel, single point]
NC(=O)N1c2ccccc2CC(=O)c2ccccc21	–	inconclusive: 44.7 µM [inhibitor, single point]
Cc1c2cc(O)c(=O)cc-2oc2cc(O)c(O)cc12	–	inconclusive: 10 µM [fluorescent, side channel, full curve] and inconclusive: 15.8 µM [fluorescent, side channel, full curve]
COc1cccc2cc(C(=O)CS(=O)(=O)c3ccc(C)cc3)c(=O)oc12	–	inconclusive: 7.94 µM [inhibitor, full curve]
COc1cccc(/C=C2\C(=O)C(=O)c3ccccc32)c1	–	inconclusive: 39.8 µM [inhibitor, single point]
O=C(Nc1ccccn1)c1ccc(Cl)s1	–	inconclusive: 12.6 µM [fluorescent, side channel, single point]
CCOc1ccc(/C=N/OCC(=O)Nc2ccc(OCc3ccccc3)cc2)cc1OC	–	inconclusive: 20 µM [fluorescent, side channel, partial curve, poor fit]
Cc1nn(-c2ccccc2)c(/N=C/c2ccccc2O)c1-c1ccccc1	–	inconclusive: 7.08 µM [fluorescent, side channel, full curve]
O=C(O)c1cc(C(=O)O)cc(-c2ccc(/C=c3/sc4nc5ccccc5n4c3=O)o2)c1	–	inconclusive: 6.31 µM [fluorescent, side channel, full curve]

Compound	activity change, negative = inhibition	Potency
COc1ccc2cc3cc(C(=O)N(C)C4CCCCC4)oc3nc2c1	–	inconclusive: 8.91 µM [inhibitor, single point]
FC(F)c1nnc2ccc(Cl)nn12	inactive: -9.38%	–
Cc1cccc(-c2cc3nc(C)cc(NCCCN(C)C)n3n2)c1	inactive: -7.69%	–
Oc1c(Br)cc(Br)c(/C=N/n2c(-c3ccccc3)n[nH]c2=S)c1Br	–	inconclusive: 7.94 µM [inhibitor, full curve]
CNc1c(NC(=O)C2CCC(C)CC2)c(=O)oc2ccccc12 (stereo unspecified)	–	inconclusive: 70.8 µM [fluorescent, side channel, partial curve]
COC(=O)CC1C(=O)NCCN1C(=S)Nc1cc(C)cc(C)c1 (stereo unspecified)	–	inconclusive: 15.8 µM [fluorescent, side channel, single point]
COc1ccc(-c2nc3ccncc3[nH]2)cc1OC	inactive: 2.43%	–
CN1CCc2c(sc(NC(=O)c3ccc(S(=O)(=O)N4CCCCCC4)cc3)c2C(N)=O)C1	–	inconclusive: 35.5 µM [fluorescent, side channel, partial curve]
Cc1nnc(SCCN2CCOCC2)c2nn(-c3ccccc3F)c(C)c12	inactive: -6.08%	–
CC(C)C(NC(=O)CSCc1ccc([N+](=O)[O-])cc1)C(C)C	–	inconclusive: 28.2 µM [fluorescent, side channel, partial curve, poor fit]
O=C1c2cccc3c(O)ccc(c23)C(=O)N1c1ccc(Cl)cc1	–	inconclusive: 14.1 µM [fluorescent, side channel, full curve]
CN(C)C1=NCCN1CCC1CCCC1	inactive: 1.74%	–
Cc1nc2ccccc2n1C(=O)N(C)C	–	inconclusive: 10 µM [quencher, side channel, full curve]
Cc1nnc(N/N=C/c2ccccc2O)n1N	–	inconclusive: 7.08 µM [quencher, side channel, full curve, poor fit]
COc1ccc(C(C)(C)C)cc1S(=O)(=O)n1ccnc1C	–	inconclusive: 35.5 µM [fluorescent, side channel, partial curve]
Nc1c(C(=O)C2CC2)sc2nc(-c3cccs3)cc(C(F)(F)F)c12	–	inconclusive: 22.4 µM [fluorescent, side channel, partial curve]
CCCc1cc(=O)oc2c(CN3CCN(C)CC3)c(O)ccc12	–	inconclusive: 15.8 µM [fluorescent, side channel, single point]
Cn1c(=O)[nH]c(=O)c2c1nc(NN)n2CCOc1ccccc1	–	inconclusive: 28.2 µM [fluorescent, side channel, partial curve]
CCOc1ncccc1C(=O)Nc1ccc(S(=O)(=O)NC2=NCCCCC2)cc1	–	inconclusive: 8.91 µM [fluorescent, side channel, single point]
